PubChem BioAssay AID743121 | NCATS | 2013
The deposit covers about 26,000 reagents; this is a random part of them. In the full data, 167 (0.63%) got an active call. 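Calls are per gene from RSA p-values that are not deposited; an individual active-marked siRNA can sensitise only weakly.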 Reagents against one gene are numbered here.

- Purpose: 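Genes whose silencing strengthens cell killing by camptothecin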 (primary screen)
- Cell system: MDA-MB-231 cells, a human breast cancer line
- Knock-down reagent: single siRNA against human genes, 20 nM siRNA (0.8 pmol per well)
- Time to read-out: 120 h (drug added 48 h after transfection, read 72 h later)
- Conditions: camptothecin 20 nM (about EC30) for 72 h; vehicle 0.1% DMSO in parallel plates
- Measured: 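Cell viability by ATP luminescence (CellTiter-Glo) as % of non-targeting siRNA wells, and the log2 ratio of viability without drug over viability with camptothecin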
- Reading the numbers: log2 vehicle/camptothecin viability: higher = stronger sensitisation to camptothecin; viability with camptothecin and viability without drug: higher = more viable cells
- Rule for the call: 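Active genes have an RSA gene-level p-value below 0.001, computed from the ratios of their separate siRNAs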

target gene | reagent | log2 vehicle/camptothecin viability | viability with camptothecin (% of control) | viability without drug (% of control) | outcome
ASB10 | 1 | -0.23 | 53.9 | 45.9 | inactive
ASB10 | 2 | 0.0982 | 30.6 | 32.7 | inactive
ASB10 | 3 | -0.0996 | 26.7 | 24.9 | inactive
ASB10 | 4 | -0.294 | 106 | 86.5 | inactive
SLAMF1 | 1 | 0.237 | 38 | 44.8 | inactive
SLAMF1 | 2 | -0.692 | 44.3 | 27.4 | inactive
SLAMF1 | 3 | -0.601 | 54.4 | 35.8 | inactive
SLAMF1 | 4 | 0.458 | 38 | 52.2 | inactive
PRKCD | 1 | -0.0714 | 59.2 | 56.3 | inactive
PRKCD | 2 | 0.24 | 65.6 | 77.5 | inactive
PRKCD | 3 | 0.262 | 60.6 | 72.7 | inactive
PRKCD | 4 | -0.465 | 65.3 | 47.3 | inactive
SLC25A14 | 1 | -0.185 | 58 | 51 | inactive
SLC25A14 | 2 | 0.0131 | 95.5 | 96.4 | inactive
SLC25A14 | 3 | -0.539 | 73.5 | 50.6 | inactive
SLC25A14 | 4 | 0.00496 | 69.8 | 70 | inactive
AURKA | 1 | -0.408 | 65.3 | 49.2 | inactive
AURKA | 2 | -0.271 | 103 | 85.7 | inactive
AURKA | 3 | -0.022 | 42.7 | 42.1 | inactive
AURKA | 4 | -0.381 | 66 | 50.7 | inactive
TCF4 | 1 | -0.0896 | 111 | 105 | inactive
TCF4 | 2 | -0.0152 | 89.3 | 88.3 | inactive
TCF4 | 3 | -0.0026 | 58.7 | 58.6 | inactive
TCF4 | 4 | -0.469 | 110 | 79.7 | inactive
CP | 1 | 0.0736 | 91.7 | 96.5 | inactive
CP | 2 | -0.521 | 71.8 | 50.1 | inactive
CP | 3 | -0.445 | 107 | 78.7 | inactive
CP | 4 | -0.705 | 66.9 | 41 | inactive
RAB23 | 1 | 0.0724 | 68.5 | 72 | inactive
RAB23 | 2 | -0.273 | 124 | 103 | inactive
RAB23 | 3 | -0.134 | 98.6 | 89.8 | inactive
GCNT2 | 1 | 1.01 | 46.1 | 92.6 | inactive
GCNT2 | 2 | 0.00587 | 82.5 | 82.9 | inactive
GCNT2 | 3 | 0.298 | 30 | 36.8 | inactive
REEP3 | 1 | -0.414 | 121 | 90.6 | inactive
REEP3 | 2 | 0.00998 | 84.1 | 84.7 | inactive
REEP3 | 3 | -0.127 | 98.1 | 89.8 | inactive
REEP3 | 4 | 0.0502 | 77.9 | 80.6 | inactive
AP1S2 | 1 | 0.0111 | 56.9 | 57.4 | inactive
AP1S2 | 2 | -0.34 | 71.6 | 56.6 | inactive
AP1S2 | 3 | -0.177 | 110 | 97.2 | inactive
AP1S2 | 4 | 0.0407 | 92.2 | 94.8 | inactive
IL17RA | 1 | -0.0142 | 5.09 | 5.04 | inactive
IL17RA | 2 | 0.079 | 74.9 | 79.2 | inactive
IL17RA | 3 | -0.516 | 41.2 | 28.8 | inactive
IL17RA | 4 | 0.43 | 68.6 | 92.4 | inactive
PTGER4 | 1 | -0.145 | 108 | 98 | inactive
PTGER4 | 2 | 1.22 | 21 | 48.9 | inactive
PTGER4 | 3 | -0.0806 | 85.3 | 80.6 | inactive
PTGER4 | 4 | 0.306 | 82 | 101 | inactive
SPSB3 | 1 | -0.525 | 67.6 | 47 | inactive
SPSB3 | 2 | -0.121 | 83.3 | 76.6 | inactive
SPSB3 | 3 | 0.0163 | 79.9 | 80.8 | inactive
SPSB3 | 4 | -0.112 | 113 | 105 | inactive
RAB34 | 1 | -0.263 | 62.7 | 52.3 | inactive
RAB34 | 2 | -0.135 | 49.8 | 45.4 | inactive
RAB34 | 3 | -0.136 | 104 | 94.7 | inactive
RAB34 | 4 | 0.465 | 53 | 73.2 | inactive

Just “viability with camptothecin (% of control)”, for 6 of the entries above:
RAB23 #2: 124
RAB23 #3: 98.6
GCNT2 #1: 46.1
GCNT2 #2: 82.5
GCNT2 #3: 30
REEP3 #1: 121

Continued.
target gene | reagent | log2 vehicle/camptothecin viability | viability with camptothecin (% of control) | viability without drug (% of control) | outcome
AGBL2 | 1 | -0.295 | 43.6 | 35.5 | inactive
AGBL2 | 2 | -0.0984 | 84.2 | 78.6 | inactive
AGBL2 | 3 | 0.207 | 83.6 | 96.5 | inactive
AGBL2 | 4 | -0.523 | 83.5 | 58.1 | inactive
PRKCG | 1 | 0.0117 | 88.9 | 89.6 | inactive
PRKCG | 2 | 0.0584 | 47.1 | 49.1 | inactive
PRKCG | 3 | -0.462 | 107 | 77.3 | inactive
PRKCG | 4 | -0.168 | 55.7 | 49.5 | inactive
OR8B8 | 1 | -0.227 | 113 | 96.7 | inactive
OR8B8 | 2 | -0.547 | 62.2 | 42.6 | inactive
OR8B8 | 3 | 0.631 | 19.9 | 30.8 | inactive
OR8B8 | 4 | -0.026 | 62.5 | 61.4 | inactive
SLA | 1 | -0.276 | 68.4 | 56.5 | inactive
SLA | 2 | -0.0682 | 100 | 95.5 | inactive
SLA | 3 | -0.148 | 84.4 | 76.2 | inactive
SLA | 4 | -0.159 | 94.8 | 84.9 | inactive
SSR2 | 1 | -0.0782 | 79.2 | 75 | inactive
SSR2 | 2 | 0.141 | 113 | 125 | inactive
SSR2 | 3 | -0.261 | 86.6 | 72.2 | inactive
SSR2 | 4 | 0.498 | 47 | 66.4 | inactive
SLC45A2 | 1 | -0.169 | 83.1 | 73.9 | inactive
SLC45A2 | 2 | -0.367 | 101 | 78.4 | inactive
SLC45A2 | 3 | -0.4 | 88.5 | 67.1 | inactive
SLC45A2 | 4 | 0.235 | 86.7 | 102 | inactive
CAPN8 | 1 | -0.117 | 67.3 | 62.1 | inactive
CAPN8 | 2 | 0.73 | 23.9 | 39.7 | inactive
CAPN8 | 3 | 0.0348 | 87.3 | 89.4 | inactive
CAPN8 | 4 | -0.0365 | 46.8 | 45.7 | inactive
CAPN8 | 5 | 0.357 | 31 | 39.6 | inactive
CAPN8 | 6 | 0.0838 | 96.8 | 103 | inactive
